Laboratory results taken from article PMC9373809.
No constants are given. Whether binding was seen depends on the method and setting. Binding seen in cells or lysates may run through a third protein. Some results given as binding are weak or reduced against the parent protein; the word gives no strength.

Sequences of proteins named here, by UniProt entry; tags and fusion partners are left off. A change or cut given only in a name is not applied to a line headed by its entry. A line that says so, or that is headed by a name, gives the form on record, which may keep a tag or linker. Residues count along the entry.
UniProt P48431: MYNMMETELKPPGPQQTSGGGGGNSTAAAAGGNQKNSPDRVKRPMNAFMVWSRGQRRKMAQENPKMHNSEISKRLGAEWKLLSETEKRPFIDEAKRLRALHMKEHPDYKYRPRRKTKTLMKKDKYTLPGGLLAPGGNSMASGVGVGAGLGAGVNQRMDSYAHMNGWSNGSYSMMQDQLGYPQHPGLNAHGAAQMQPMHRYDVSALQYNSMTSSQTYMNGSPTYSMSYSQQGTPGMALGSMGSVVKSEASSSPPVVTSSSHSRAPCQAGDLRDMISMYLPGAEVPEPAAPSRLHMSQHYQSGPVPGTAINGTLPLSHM
GST-fused SOX2 (a.a. 1-204): residues 1-204 of P48431
GST-fused SOX2 (a.a. 1-120): residues 1-120 of P48431
UniProt O15047: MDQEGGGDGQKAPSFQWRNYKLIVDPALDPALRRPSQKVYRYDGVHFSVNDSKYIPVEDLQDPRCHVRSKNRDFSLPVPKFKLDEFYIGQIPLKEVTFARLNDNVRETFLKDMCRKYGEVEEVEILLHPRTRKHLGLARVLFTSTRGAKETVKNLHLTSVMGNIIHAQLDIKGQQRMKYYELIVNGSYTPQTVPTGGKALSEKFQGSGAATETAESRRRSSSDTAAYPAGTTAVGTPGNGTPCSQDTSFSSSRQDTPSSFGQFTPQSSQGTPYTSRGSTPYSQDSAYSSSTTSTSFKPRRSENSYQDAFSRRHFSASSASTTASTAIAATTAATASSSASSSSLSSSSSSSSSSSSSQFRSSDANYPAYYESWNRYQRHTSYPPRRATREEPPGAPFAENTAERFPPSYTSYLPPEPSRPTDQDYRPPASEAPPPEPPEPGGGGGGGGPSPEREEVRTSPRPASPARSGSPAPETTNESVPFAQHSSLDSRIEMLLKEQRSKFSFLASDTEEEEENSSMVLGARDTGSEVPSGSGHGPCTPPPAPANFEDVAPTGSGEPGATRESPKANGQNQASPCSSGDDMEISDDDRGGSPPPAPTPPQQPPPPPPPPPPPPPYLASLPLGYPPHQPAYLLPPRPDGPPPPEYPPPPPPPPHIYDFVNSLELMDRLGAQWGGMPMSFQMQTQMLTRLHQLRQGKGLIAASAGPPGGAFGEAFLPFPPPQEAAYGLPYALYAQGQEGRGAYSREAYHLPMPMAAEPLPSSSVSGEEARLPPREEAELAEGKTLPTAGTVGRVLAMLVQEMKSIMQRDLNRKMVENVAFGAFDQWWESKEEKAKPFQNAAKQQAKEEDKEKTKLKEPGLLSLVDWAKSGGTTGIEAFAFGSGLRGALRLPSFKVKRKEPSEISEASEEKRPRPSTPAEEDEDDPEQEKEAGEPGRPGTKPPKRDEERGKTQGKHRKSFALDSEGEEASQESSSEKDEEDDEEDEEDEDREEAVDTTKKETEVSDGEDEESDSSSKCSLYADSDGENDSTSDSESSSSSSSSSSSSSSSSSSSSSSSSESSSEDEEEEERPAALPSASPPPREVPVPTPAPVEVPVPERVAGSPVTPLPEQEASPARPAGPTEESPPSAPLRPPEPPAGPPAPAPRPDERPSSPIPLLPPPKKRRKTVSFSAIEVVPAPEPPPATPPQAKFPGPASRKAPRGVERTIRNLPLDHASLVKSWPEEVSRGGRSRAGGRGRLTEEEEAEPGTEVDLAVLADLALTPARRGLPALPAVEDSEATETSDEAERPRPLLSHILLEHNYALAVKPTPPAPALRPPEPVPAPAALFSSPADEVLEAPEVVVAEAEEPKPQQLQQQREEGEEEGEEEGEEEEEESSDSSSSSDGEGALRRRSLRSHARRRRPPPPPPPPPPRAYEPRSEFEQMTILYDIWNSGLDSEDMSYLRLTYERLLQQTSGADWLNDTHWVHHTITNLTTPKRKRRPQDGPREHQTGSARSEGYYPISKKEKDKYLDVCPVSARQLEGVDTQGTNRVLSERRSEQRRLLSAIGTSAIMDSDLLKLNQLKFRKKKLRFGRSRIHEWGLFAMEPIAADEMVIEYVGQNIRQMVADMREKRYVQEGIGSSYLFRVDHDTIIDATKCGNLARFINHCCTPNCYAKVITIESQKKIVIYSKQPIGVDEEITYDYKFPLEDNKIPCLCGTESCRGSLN
His-tagged SET domain of SETD1A with the Win motif (Win-SET, a.a. 1450-1707): residues 1450-1707 of O15047

Assays:
[1] = target: GST-fused SOX2 (a.a. 1-120) (UniProt P48431); experiment: pull-down; GST-tagged SOX2 truncations from E. coli incubated with in vitro transcribed and translated FLAG-tagged full-length SETD1A; bound SETD1A detected with anti-FLAG antibody; only the target purified
[2] = target: GST-fused SOX2 (a.a. 1-317) (UniProt P48431); experiment: as above
[3] = target: GST-fused SOX2 (a.a. 1-204) (UniProt P48431); experiment: as above
[4] = target: His-tagged SET domain of SETD1A with the Win motif (Win-SET, a.a. 1450-1707) (UniProt O15047); experiment: pull-down; His-tagged SET domains of SETD1A (Win-SET or SET) bound to Ni-NTA beads, incubated with TamR cell lysates; bound SOX2 detected with anti-SOX2 antibody; only the target purified
[5] = target: SET domain containing 1A (SETD1A), endogenous (human (endogenous in TamR MCF-7)) (UniProt O15047); experiment: co-IP; TamR cell extracts (20 mM Tris-Cl pH 8.0, 150 mM NaCl, 1% NP-40, 2 mM EDTA); anti-SETD1A or anti-SOX2 antibody on Protein A/G agarose beads, overnight at 4 °C; western blot of SOX2 or SETD1A

“FLAG-tagged full-length SETD1A (from UniProt O15047 1-1707)” was tested, and the binding [1] was “binds”, the binding [2] was “binds” and the binding [3] was “binds”.
“SRY-box transcription factor 2 (SOX2), endogenous (from UniProt P48431 1-317)” was tested, and the binding [4] was “binds” and the binding [5] was “binds”.
